Structures can show the parent of a compound that is named as a salt. Some of the results follow. This data set is noisy: repeats of one test often differ as much as different tests do.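 The human kidney-derived cells carry a stably integrated construct of eight TEAD-binding elements driving luciferase, read by luminescence in a drug-repurposing library screen. A compound counts as a hit when its signal is more than five robust Z scores above the plate mean.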
Test system: HEK293A TEAD-LUC reporter
Assay: TEAD-luciferase reporter activity (YAP activation), robust Z score vs plate; higher = stronger YAP/TEAD activation
Settings: 24 h

CO[C@H]1/C=C/O[C@@]2(C)Oc3c(C)c(O)c4c(O)c(c5c(nc6cc(C)ccn65)c4c3C2=O)NC(=O)C(C)=C/C=C/[C@H](C)[C@H](O)[C@@H](C)[C@@H](O)[C@@H](C)[C@H](OC(C)=O)[C@@H]1C
TEAD-luciferase reporter activity (compound concentration: 200 nM): inactive: 1.37
TEAD-luciferase reporter activity (compound concentration: 10 uM): inactive: 0.809

CO[C@H]1/C=C/O[C@@]2(C)Oc3c(C)c(O)c4c(O)c(c5c(nc6cc(C)ccn65)c4c3C2=O)NC(=O)C(C)=C/C=C/[C@H](C)[C@H](O)[C@@H](C)[C@@H](O)[C@@H](C)[C@H](OC(C)=O)[C@@H]1C [rifaximin]
TEAD-luciferase reporter activity (compound concentration: 2 uM): inactive: -0.32

O=C1CN(/N=C/c2ccc([N+](=O)[O-])o2)C(=O)N1
TEAD-luciferase reporter activity (compound concentration: 200 nM): inactive: 0.358
TEAD-luciferase reporter activity (compound concentration: 10 uM): inactive: -0.00789

O=C1CN(/N=C/c2ccc([N+](=O)[O-])o2)C(=O)N1 [Nitrofurantoin]
TEAD-luciferase reporter activity (compound concentration: 2 uM): inactive: 0.107

Nc1nccc2c1ncn2[C@@H]1O[C@H](CO)[C@@H](O)[C@H]1O [3-Deazaadenosine]
TEAD-luciferase reporter activity (compound concentration: 200 nM): inactive: -0.716
TEAD-luciferase reporter activity (compound concentration: 2 uM): inactive: -1.07
TEAD-luciferase reporter activity (compound concentration: 10 uM): inactive: -0.882

O=C(Nc1cccc(OC(F)(F)F)c1)O[C@@H]1COc2nc([N+](=O)[O-])cn2C1
TEAD-luciferase reporter activity (compound concentration: 200 nM): inactive: 0.904
TEAD-luciferase reporter activity (compound concentration: 2 uM): inactive: -1.88
TEAD-luciferase reporter activity (compound concentration: 10 uM): inactive: -0.198

O=C(O)CC[C@H]1CC[C@@](c2cc(F)ccc2F)(S(=O)(=O)c2ccc(Cl)cc2)CC1
TEAD-luciferase reporter activity (compound concentration: 200 nM): inactive: -0.321
TEAD-luciferase reporter activity (compound concentration: 2 uM): inactive: -1.03
TEAD-luciferase reporter activity (compound concentration: 10 uM): inactive: -2.15

CC[C@@H]([C@H](C)O)n1ncn(-c2ccc(N3CCN(c4ccc(OC[C@@H]5CO[C@@](Cn6cncn6)(c6ccc(F)cc6F)C5)cc4)CC3)cc2)c1=O [posaconazole]
TEAD-luciferase reporter activity (compound concentration: 200 nM): inactive: -1.01
TEAD-luciferase reporter activity (compound concentration: 2 uM): inactive: 0.745
TEAD-luciferase reporter activity (compound concentration: 10 uM): inactive: 1.41

COc1cc(F)cc2c1-c1c(OC)cc(F)cc1C21NC(=O)NC1=O
TEAD-luciferase reporter activity (compound concentration: 200 nM): inactive: -1.09
TEAD-luciferase reporter activity (compound concentration: 2 uM): inactive: -1.6
TEAD-luciferase reporter activity (compound concentration: 10 uM): inactive: 0.834

COc1cc(-n2cnc3cc(-c4ccc(Cl)cc4)sc3c2=O)ccc1OCC(OP(=O)(O)O)C1CC1 (stereo unspecified)
TEAD-luciferase reporter activity (compound concentration: 200 nM): inactive: -0.0997
TEAD-luciferase reporter activity (compound concentration: 2 uM): inactive: -1.3
TEAD-luciferase reporter activity (compound concentration: 10 uM): inactive: -1.43

COC[C@H](NC(=O)c1cnc(C)s1)C(=O)N[C@@H](COC)C(=O)N[C@@H](Cc1ccccc1)C(=O)C1(C)CO1 (stereo partly specified) [oprozomib]
TEAD-luciferase reporter activity (compound concentration: 200 nM): inactive: 0.413
TEAD-luciferase reporter activity (compound concentration: 2 uM): inactive: -1.55
TEAD-luciferase reporter activity (compound concentration: 10 uM): inactive: 0.0228

COc1cc(C(=O)OCCCN2CCCN(CCCOC(=O)c3cc(OC)c(OC)c(OC)c3)CC2)cc(OC)c1OC [dilazep]
TEAD-luciferase reporter activity (compound concentration: 200 nM): inactive: 1.61
TEAD-luciferase reporter activity (compound concentration: 2 uM): inactive: -0.953
TEAD-luciferase reporter activity (compound concentration: 10 uM): inactive: 3.59

Nc1nc(=O)n([C@H]2CC(O)C(CO)O2)cc1I (stereo partly specified) [ibacitabine]
TEAD-luciferase reporter activity (compound concentration: 200 nM): inactive: -0.597
TEAD-luciferase reporter activity (compound concentration: 2 uM): inactive: 0.862
TEAD-luciferase reporter activity (compound concentration: 10 uM): active: 9.95

CC(=N)NCCCCC(N)C(=O)Nc1nnn[nH]1 (stereo unspecified)
TEAD-luciferase reporter activity (compound concentration: 200 nM): inactive: -0.084
TEAD-luciferase reporter activity (compound concentration: 2 uM): inactive: -0.141
TEAD-luciferase reporter activity (compound concentration: 10 uM): inactive: 2.27

CC(C)(CS(=O)(=O)c1ccc(OC(=O)C(C)(C)c2ccc(C(C)(C)C(=O)Oc3ccc(S(=O)(=O)CC(C)(C)C(=O)O)cc3)cc2)cc1)C(=O)O
TEAD-luciferase reporter activity (compound concentration: 200 nM): inactive: -0.00781
TEAD-luciferase reporter activity (compound concentration: 2 uM): inactive: -0.258
TEAD-luciferase reporter activity (compound concentration: 10 uM): inactive: -1.19

CC(C)(C)NCC(O)COc1ccccc1OCC1CCCO1 (stereo unspecified)
TEAD-luciferase reporter activity (compound concentration: 200 nM): inactive: -1.42
TEAD-luciferase reporter activity (compound concentration: 2 uM): inactive: -0.718
TEAD-luciferase reporter activity (compound concentration: 10 uM): inactive: 0.733

CC(C)n1c(=O)c2c(-c3noc(C4CC4)n3)ncn2c2ccccc21
TEAD-luciferase reporter activity (compound concentration: 200 nM): inactive: 1.18
TEAD-luciferase reporter activity (compound concentration: 2 uM): inactive: -0.677
TEAD-luciferase reporter activity (compound concentration: 10 uM): inactive: -0.323

O=C(c1ccccc1)N1CCC(N2CCCC2=O)CC1
TEAD-luciferase reporter activity (compound concentration: 200 nM): inactive: 1.44
TEAD-luciferase reporter activity (compound concentration: 10 uM): inactive: 1.5

CCc1cc(N2CCC(N)C2)nc(N)n1 (stereo unspecified)
TEAD-luciferase reporter activity (compound concentration: 200 nM): inactive: -0.206
TEAD-luciferase reporter activity (compound concentration: 2 uM): inactive: 0.727
TEAD-luciferase reporter activity (compound concentration: 10 uM): active: 5.89

CC(=O)[C@@]1(O)[C@H](O)C[C@H]2[C@@H]3CCC4=CC(=O)CC[C@]4(C)[C@H]3CC[C@@]21C
TEAD-luciferase reporter activity (compound concentration: 200 nM): inactive: -1
TEAD-luciferase reporter activity (compound concentration: 2 uM): inactive: 0.132
TEAD-luciferase reporter activity (compound concentration: 10 uM): inactive: 0.904

CC1(C)CCC(C)(C)c2cc(C#Cc3ccc(C(=O)O)cc3)ccc21
TEAD-luciferase reporter activity (compound concentration: 200 nM): inactive: 1.15
TEAD-luciferase reporter activity (compound concentration: 2 uM): inactive: -1.14
TEAD-luciferase reporter activity (compound concentration: 10 uM): inactive: 1.04

C=CCc1cc(OC)c(O)c(C(=O)NCCO)c1
TEAD-luciferase reporter activity (compound concentration: 200 nM): inactive: -2.31
TEAD-luciferase reporter activity (compound concentration: 2 uM): inactive: 0.291
TEAD-luciferase reporter activity (compound concentration: 10 uM): inactive: -0.144

CCCc1ccc(NS(=O)(=O)Cc2ccccc2)c(=O)n1CC(=O)NCc1cccc(OC)c1
TEAD-luciferase reporter activity (compound concentration: 200 nM): inactive: 1.26
TEAD-luciferase reporter activity (compound concentration: 2 uM): inactive: 0.343
TEAD-luciferase reporter activity (compound concentration: 10 uM): inactive: -0.118

COc1cc2c(Oc3ccc4[nH]c(C)cc4c3F)ccnc2cc1OCC1(N)CC1 [Anlotinib dihydrochloride]
TEAD-luciferase reporter activity (compound concentration: 200 nM): inactive: -0.108
TEAD-luciferase reporter activity (compound concentration: 2 uM): inactive: -0.813
TEAD-luciferase reporter activity (compound concentration: 10 uM): inactive: -1.79

c1cc(OCCCN2CCCCC2)ccc1CN1CCCCC1
TEAD-luciferase reporter activity (compound concentration: 200 nM): inactive: -0.424
TEAD-luciferase reporter activity (compound concentration: 2 uM): inactive: 0.67
TEAD-luciferase reporter activity (compound concentration: 10 uM): inactive: -0.549

CC(=O)N1CC2(CCN(C(=O)c3ccc(Cl)cc3)CC2)Cc2ccccc21
TEAD-luciferase reporter activity (compound concentration: 200 nM): inactive: -1.13
TEAD-luciferase reporter activity (compound concentration: 10 uM): inactive: -1.18

CN1C[C@@H]2[C@H](C1)[C@H]2CN(Cc1ccc(F)c(Cl)c1)C(=O)c1cn(C)cn1
TEAD-luciferase reporter activity (compound concentration: 200 nM): inactive: -1.35
TEAD-luciferase reporter activity (compound concentration: 2 uM): inactive: -0.354
TEAD-luciferase reporter activity (compound concentration: 10 uM): inactive: 4.04

N#CN/C(=N\CCO[N+](=O)[O-])c1cccnc1
TEAD-luciferase reporter activity (compound concentration: 200 nM): inactive: -0.707
TEAD-luciferase reporter activity (compound concentration: 2 uM): inactive: -0.559
TEAD-luciferase reporter activity (compound concentration: 10 uM): inactive: -1.57

NC(=O)C(c1ccccc1)(c1ccc(F)cc1)c1ccc(F)cc1 [senicapoc]
TEAD-luciferase reporter activity (compound concentration: 200 nM): inactive: -1.43
TEAD-luciferase reporter activity (compound concentration: 2 uM): inactive: -0.999
TEAD-luciferase reporter activity (compound concentration: 10 uM): inactive: -1.19

CC(C)Oc1ncc(-c2nc(-c3cccc4c3ccn4CCCC(=O)O)no2)cc1Cl
TEAD-luciferase reporter activity (compound concentration: 200 nM): inactive: -1.02
TEAD-luciferase reporter activity (compound concentration: 2 uM): inactive: -0.685
TEAD-luciferase reporter activity (compound concentration: 10 uM): active: 5.23

CC(=O)NCC1(c2ccccc2)CCN(C[C@@H]2COc3ccccc3O2)CC1
TEAD-luciferase reporter activity (compound concentration: 200 nM): inactive: -0.46
TEAD-luciferase reporter activity (compound concentration: 2 uM): inactive: -0.125
TEAD-luciferase reporter activity (compound concentration: 10 uM): inactive: -0.508

C[n+]1ccc(SCC2=C(C(=O)O)N3C(=O)[C@H](NC(=O)/C(=N/OC(C)(C)C(=O)[O-])c4csc(N)n4)[C@@H]3S(=O)C2)cc1 (stereo partly specified)
TEAD-luciferase reporter activity (compound concentration: 200 nM): inactive: -0.939
TEAD-luciferase reporter activity (compound concentration: 2 uM): inactive: -0.125
TEAD-luciferase reporter activity (compound concentration: 10 uM): inactive: -0.707

CO[C@H]1C[C@@H]2CC[C@@H](C)[C@@](O)(O2)C(=O)C(=O)N2CCCC[C@H]2C(=O)O[C@H]([C@H](C)C[C@H]2CC[C@@H](OP(C)(C)=O)[C@H](OC)C2)CC(=O)[C@H](C)/C=C(\C)[C@@H](O)[C@@H](OC)C(=O)[C@H](C)C[C@H](C)/C=C/C=C/C=C/1C [Deforolimus]
TEAD-luciferase reporter activity (compound concentration: 200 nM): inactive: -0.194
TEAD-luciferase reporter activity (compound concentration: 2 uM): inactive: 0.379
TEAD-luciferase reporter activity (compound concentration: 10 uM): inactive: 4.91
